Paper PMC2933246
No constants are given. Whether binding was seen depends on the method and setting. Binding calls can cover weak binding; strength is not graded here.

Protein sequences, listed by entry. Tags and fused reporters are not part of them. Lines headed by an entry give the natural chain unless they say otherwise; changes in a name come on top.
UniProt P17255: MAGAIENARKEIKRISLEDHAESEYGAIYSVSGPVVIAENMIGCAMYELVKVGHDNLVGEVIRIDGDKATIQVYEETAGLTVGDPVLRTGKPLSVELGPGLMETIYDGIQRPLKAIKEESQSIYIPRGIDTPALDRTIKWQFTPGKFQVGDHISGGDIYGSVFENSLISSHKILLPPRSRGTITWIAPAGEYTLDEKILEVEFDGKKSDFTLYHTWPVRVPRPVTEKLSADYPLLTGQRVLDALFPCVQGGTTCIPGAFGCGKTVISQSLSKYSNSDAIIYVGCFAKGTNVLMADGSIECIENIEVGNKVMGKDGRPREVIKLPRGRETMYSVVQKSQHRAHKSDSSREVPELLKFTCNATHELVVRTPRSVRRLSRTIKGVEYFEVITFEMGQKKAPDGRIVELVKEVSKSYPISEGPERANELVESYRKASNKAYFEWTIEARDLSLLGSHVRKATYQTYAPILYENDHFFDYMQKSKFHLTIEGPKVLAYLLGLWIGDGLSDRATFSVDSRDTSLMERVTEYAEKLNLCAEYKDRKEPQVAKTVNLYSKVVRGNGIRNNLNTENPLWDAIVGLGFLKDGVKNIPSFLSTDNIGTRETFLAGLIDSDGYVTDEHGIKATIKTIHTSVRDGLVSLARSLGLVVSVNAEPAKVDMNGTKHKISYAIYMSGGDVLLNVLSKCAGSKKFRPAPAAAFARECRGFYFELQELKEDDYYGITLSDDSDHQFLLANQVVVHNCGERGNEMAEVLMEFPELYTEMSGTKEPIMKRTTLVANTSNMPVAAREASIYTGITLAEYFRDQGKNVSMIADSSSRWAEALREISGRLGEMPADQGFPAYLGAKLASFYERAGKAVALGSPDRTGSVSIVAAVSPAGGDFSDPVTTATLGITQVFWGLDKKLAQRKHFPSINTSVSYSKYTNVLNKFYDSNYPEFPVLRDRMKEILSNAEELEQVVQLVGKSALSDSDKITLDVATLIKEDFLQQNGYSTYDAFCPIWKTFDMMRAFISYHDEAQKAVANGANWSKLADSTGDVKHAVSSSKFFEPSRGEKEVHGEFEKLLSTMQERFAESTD
UniProt P32610: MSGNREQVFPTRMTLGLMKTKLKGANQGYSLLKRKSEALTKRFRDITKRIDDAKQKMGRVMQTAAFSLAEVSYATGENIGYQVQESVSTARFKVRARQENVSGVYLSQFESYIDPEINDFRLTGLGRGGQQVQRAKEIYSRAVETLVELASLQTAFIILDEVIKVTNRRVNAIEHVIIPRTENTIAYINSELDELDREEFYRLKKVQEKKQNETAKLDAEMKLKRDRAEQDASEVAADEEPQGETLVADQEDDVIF
UniProt P39111: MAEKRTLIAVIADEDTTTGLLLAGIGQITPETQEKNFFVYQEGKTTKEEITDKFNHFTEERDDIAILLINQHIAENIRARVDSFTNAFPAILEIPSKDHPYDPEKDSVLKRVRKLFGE

Target: V-ATPase subunit A with carboxy-terminal 3xFLAG (Saccharomyces cerevisiae) (UniProt P17255)
Experiment: cryo-EM structure; A3B3DF reconstruction, 14 Å, 21,682 particles, sorted by MU… (EMAN) from the purified V1-ATPase sample; T. thermophilus X-ray coordinates fitted; both purified

Substance | binding
V-ATPase subunit D (from UniProt P32610 1-256) | binds
V-ATPase subunit F (from UniProt P39111 1-118) | binds
